Like-named read-outs stand apart in the source and are kept apart here. Results are given in words; binding and its absence hold for the method and conditions named. Some entries that bind do so weakly or less than the wild type.
Legend:
Experiment in all cases: cryo-EM structure
INTS14 = INTS14 (UniProt Q96SY0)
INTS10 [1] = molecular target: INTS10 (UniProt Q9NVR2)
INTS10 [2] = molecular target: INTS10 (UniProt Q9NVR2); remark: listed apart in the source

Amino acid sequences for entries named in this document (tags omitted).
UniProt Q96SY0: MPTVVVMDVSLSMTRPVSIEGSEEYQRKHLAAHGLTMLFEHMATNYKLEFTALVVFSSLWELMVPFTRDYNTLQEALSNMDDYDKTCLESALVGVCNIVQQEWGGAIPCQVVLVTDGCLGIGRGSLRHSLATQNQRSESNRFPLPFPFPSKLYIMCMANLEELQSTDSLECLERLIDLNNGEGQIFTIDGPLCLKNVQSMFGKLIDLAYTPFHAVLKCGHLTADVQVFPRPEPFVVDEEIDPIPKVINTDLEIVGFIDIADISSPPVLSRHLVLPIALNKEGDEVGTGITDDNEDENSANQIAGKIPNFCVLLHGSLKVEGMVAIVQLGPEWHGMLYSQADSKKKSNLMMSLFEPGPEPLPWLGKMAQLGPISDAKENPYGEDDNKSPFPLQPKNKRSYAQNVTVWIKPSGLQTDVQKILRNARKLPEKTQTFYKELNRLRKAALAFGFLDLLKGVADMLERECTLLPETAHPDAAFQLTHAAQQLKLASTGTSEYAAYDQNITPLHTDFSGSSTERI
UniProt Q9NVR2: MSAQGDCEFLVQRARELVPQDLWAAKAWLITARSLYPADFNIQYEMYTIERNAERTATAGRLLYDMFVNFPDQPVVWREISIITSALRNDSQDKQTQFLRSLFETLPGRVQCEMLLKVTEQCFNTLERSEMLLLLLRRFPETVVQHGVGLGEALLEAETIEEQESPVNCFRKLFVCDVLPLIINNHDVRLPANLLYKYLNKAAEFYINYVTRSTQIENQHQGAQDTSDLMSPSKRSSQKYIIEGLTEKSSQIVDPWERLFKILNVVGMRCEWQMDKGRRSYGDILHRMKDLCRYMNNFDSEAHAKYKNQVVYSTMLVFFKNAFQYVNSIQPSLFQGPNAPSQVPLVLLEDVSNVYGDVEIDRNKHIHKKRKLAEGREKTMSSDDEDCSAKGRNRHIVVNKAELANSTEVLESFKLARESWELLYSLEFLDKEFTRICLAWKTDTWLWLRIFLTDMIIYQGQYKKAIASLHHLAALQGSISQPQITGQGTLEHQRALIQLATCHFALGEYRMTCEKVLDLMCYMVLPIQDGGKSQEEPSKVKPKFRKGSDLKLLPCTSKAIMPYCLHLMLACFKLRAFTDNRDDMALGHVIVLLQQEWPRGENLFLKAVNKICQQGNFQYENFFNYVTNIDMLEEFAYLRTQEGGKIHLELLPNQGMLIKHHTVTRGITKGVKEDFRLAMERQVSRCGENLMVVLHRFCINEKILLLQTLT
UniProt Q9NVM9: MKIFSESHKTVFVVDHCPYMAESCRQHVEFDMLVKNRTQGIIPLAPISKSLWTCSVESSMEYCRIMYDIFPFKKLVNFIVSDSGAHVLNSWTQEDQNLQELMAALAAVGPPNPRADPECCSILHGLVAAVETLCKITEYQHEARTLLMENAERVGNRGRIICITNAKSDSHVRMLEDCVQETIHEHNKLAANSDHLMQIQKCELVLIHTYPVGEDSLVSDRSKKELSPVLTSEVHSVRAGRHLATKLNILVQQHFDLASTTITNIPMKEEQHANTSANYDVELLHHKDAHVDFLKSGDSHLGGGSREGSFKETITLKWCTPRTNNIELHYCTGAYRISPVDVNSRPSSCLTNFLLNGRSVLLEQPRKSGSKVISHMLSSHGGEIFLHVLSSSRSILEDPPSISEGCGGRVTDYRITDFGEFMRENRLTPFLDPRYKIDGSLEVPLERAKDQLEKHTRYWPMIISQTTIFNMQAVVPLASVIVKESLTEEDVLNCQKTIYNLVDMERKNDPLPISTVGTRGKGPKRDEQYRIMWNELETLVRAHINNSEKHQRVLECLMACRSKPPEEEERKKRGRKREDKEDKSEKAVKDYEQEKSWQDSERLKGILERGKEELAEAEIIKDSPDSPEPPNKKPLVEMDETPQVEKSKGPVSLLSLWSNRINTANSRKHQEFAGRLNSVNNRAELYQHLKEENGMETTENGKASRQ
UniProt Q96N11: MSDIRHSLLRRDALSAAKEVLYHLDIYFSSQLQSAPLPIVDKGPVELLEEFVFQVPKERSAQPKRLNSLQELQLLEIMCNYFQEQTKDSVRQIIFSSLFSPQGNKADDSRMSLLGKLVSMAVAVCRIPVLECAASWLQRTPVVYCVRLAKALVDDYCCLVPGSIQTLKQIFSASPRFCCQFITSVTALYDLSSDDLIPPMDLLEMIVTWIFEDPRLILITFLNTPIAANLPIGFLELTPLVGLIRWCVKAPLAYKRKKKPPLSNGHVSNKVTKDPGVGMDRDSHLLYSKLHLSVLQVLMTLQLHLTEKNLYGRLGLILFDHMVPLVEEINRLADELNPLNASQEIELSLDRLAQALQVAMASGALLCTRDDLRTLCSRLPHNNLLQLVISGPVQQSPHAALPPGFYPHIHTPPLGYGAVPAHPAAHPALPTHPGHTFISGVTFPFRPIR

binding (INTS14)	binding (INTS10 [1])	binding (INTS10 [2])	Substance
binds	–	–	INTS13 (from UniProt Q9NVM9 1-706)
–	binds	binds	INTS15 (from UniProt Q96N11 1-449)

Reference: doi:10.1101/2024.01.30.577955
